According to PubChem BioAssay AID2551 (National Center for Advancing Translational Sciences (NCATS), 2010):
Hit rate of the full screen: of about 310,000 compounds, about 17,000 (5.5%) were called active. This list was built around the results that the source calls inconclusive (neither active nor inactive); the mix of calls is not that of the screen. Calls follow the shape of the dose curve; as a rule, active = well fitted inhibition curve with a large enough effect; inconclusive = small, poorly fitted or top-dose-only effect, or effect the other way; inactive = no such curve, though single readings can be large or run the other way. Where the call is inconclusive, the potency comes from a doubtful curve fit.
% is scaled to controls: 0 for no effect and ±100 for the full control effect; potency is read from the fitted curve at half-maximal effect.
Also: nearly all actives have a fitted effect of over 60% in size.

Amino acid sequences for entries named in this document (tags omitted). A change or cut given only in a name is not applied to a line headed by its entry.
UniProt P51450: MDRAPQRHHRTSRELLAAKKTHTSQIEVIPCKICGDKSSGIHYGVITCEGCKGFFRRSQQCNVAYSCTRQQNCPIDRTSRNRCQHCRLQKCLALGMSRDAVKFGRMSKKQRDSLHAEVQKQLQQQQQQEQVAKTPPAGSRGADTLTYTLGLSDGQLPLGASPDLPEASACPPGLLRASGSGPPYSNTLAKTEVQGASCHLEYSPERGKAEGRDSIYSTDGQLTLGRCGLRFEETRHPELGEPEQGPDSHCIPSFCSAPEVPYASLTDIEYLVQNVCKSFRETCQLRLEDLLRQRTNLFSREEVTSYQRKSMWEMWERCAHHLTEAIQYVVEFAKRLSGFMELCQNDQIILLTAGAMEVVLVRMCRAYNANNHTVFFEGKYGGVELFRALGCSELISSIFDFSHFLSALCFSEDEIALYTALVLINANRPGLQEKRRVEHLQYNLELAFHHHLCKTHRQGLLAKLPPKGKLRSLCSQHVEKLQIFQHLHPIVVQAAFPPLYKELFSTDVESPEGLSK

The compounds below were run against Nuclear receptor ROR-gamma (Mus musculus) (UniProt P51450) (assay: qHTS for inhibitors of ROR gamma transcriptional activity). Conditions: Drosophila S2 Gal4-RORgamma UAS-luciferase reporter, 20 h; activity change, negative = inhibition: at 53.6 µM (top of the series).
Method in brief: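 In this cell-based reporter format, copper sulfate (700 uM final) drives Gal4–ROR gamma fusion expression from a metallothionein promoter in Drosophila Schneider cells; compounds preincubated 1 hr, reporter read after 20 hr at ambient temperature.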
In the case of O=C(NNC(=O)c1ccc2nonc2c1)Nc1ccc(Cl)cc1, the Potency is reported as “inactive”. For O=C(c1ccc(OC2CCN(Cc3ccc(C(F)(F)F)cc3)CC2)cc1)N1CCCCC1, the Potency was inconclusive: 28.2 µM [activator, single point]. In the case of COc1ccccc1N1CCN(C(=S)Nc2ccc3nc(N4CCOCC4)cc(C)c3c2)CC1, the Potency is reported as active: 4.47 µM. COc1ccc(OC)c(NC(=O)CSc2nnc(C3CCCCC3)n2-c2ccccc2)c1 was tested, and the Potency was “inactive”. For Cc1cc(NC(=O)COC(=O)c2cccc(OCc3ccccc3)c2)no1, the Potency was “inactive”. With O=C(COc1ccc(Cl)cc1)NCCNc1ccc([N+](=O)[O-])cc1 the Potency was “inactive”. For Cc1cccc(N2C(S)=C(C#N)C(=O)NC2c2cccs2)c1 (stereo not drawn), the Potency was inconclusive: 20 µM [inhibitor, single point]. With C=C(C)CN(CC)c1nc(N)c2c(N)nc3c(c2c1C#N)CC(=O)N3C12CC3CC(CC(C3)C1)C2 the Potency was “inactive”. For COc1ccc(/C=C2\SC(=S)N(CCCC(=O)N3CCN(C)CC3)C2=O)cc1, the Potency was active: 7.08 µM. In the case of CCCc1cc(=O)[nH]c(SCC(=O)CSc2nc(CCC)cc(=O)[nH]2)n1, the Potency is reported as “inactive”. For COc1ccc(OC)c(NC(=S)NC(=O)c2ccc(Br)o2)c1, the Potency was active: 3.98 µM. CC1=NN(c2cccc(C(=O)O)c2)C(=O)/C1=C\C=C\c1ccco1 was tested, and the Potency was active: 3.55 µM. In the case of CCOC(=O)C1=C(C)NC(=S)NC1c1ccc(-c2ccc(Cl)cc2)o1 (stereo not drawn), the Potency is reported as active: 2.51 µM. For C1CN(c2nc3nonc3nc2N2C[C@H]3CC[C@H]2C3)CCS1, the Potency was “inactive”. With O=C(NCc1ccccc1Cl)c1cccc(C(F)(F)F)c1 the Potency was inconclusive: 31.6 µM [activator, single point]. For CC(=O)Nc1cccc(Oc2ncccc2[N+](=O)[O-])c1, the Potency was “inactive”. For Cc1c(C(=O)Nc2cccc([N+](=O)[O-])c2)csc1-c1ccccc1, the Potency was inconclusive: 1.26 µM [activator, partial curve]. In the case of O=P(OC1CCCCC1)(OC1CCCCC1)C(O)c1cccnc1 (stereo not drawn), the Potency is reported as “inactive”. In the case of CC(C)(C)c1ccc(C(=O)N2CCC(C(=O)NCC3CCCO3)CC2)cc1 (stereo not drawn), the Potency is reported as inconclusive: 31.6 µM [activator, single point]. For CCCSc1nc2c(c(=O)[nH]c(=O)n2C)n1Cc1ccccc1, the Potency was inconclusive: 0.224 µM [activator, single point]. COC(=O)CC1C(=O)NCCN1C(=O)CSc1nc2ccccc2c(=O)n1CC(C)C (stereo not drawn) was tested, and the Potency was active: 11.2 µM. Cc1nn(CC(=O)NNC(=S)Nc2ccccc2)c(C)c1[N+](=O)[O-] was tested, and the Potency was active: 8.91 µM. For O=C(NNC(=S)NC1CCCCC1)c1sc2ccccc2c1Cl, the Potency was active: 2.82 µM. For Cc1ccc(C(c2sc3ncnn3c2O)N2CCCCC2)cc1 (stereo not drawn), the Potency was inconclusive: 0.141 µM [inhibitor, full curve, poor fit]. In the case of OCCNCc1ccc(OCc2ccc(Cl)cc2Cl)cc1, the Potency is reported as active: 12.6 µM. With N#C/C(=N\Nc1ccccc1[N+](=O)[O-])C(=N)N1CCCCC1 the Potency was inconclusive: 11.2 µM [inhibitor, single point]. Cc1[nH]n(-c2ccccc2)c(=O)c1/C=N/NC(=O)C(C)C was tested, and the Potency was active: 6.31 µM. For Cn1c(=O)c2c(nc(CN3CCN(C(c4ccccc4)c4ccccc4)CC3)n2CCCO)n(C)c1=O, the Potency was inconclusive: 12.6 µM [activator, single point]. For Cc1c(C(=O)c2ccc(Cl)cc2[N+](=O)[O-])c2ccccn2c1CCC#N, the Potency was “inactive”. Cc1cc(C)nc(NC(=O)CSc2nc3ccccc3o2)n1 was tested, and the Potency was inconclusive: 14.1 µM [activator, partial curve, poor fit]. For COc1cc(CN(C)Cc2cc(=O)n3ccsc3n2)ccc1OC(F)F, the Potency was “inactive”. In the case of O=C(NCCCCNC(=O)c1cccnc1)c1cccnc1, the Potency is reported as inconclusive: 0.282 µM [inhibitor, full curve, poor fit]. With Cc1ccc2nc3c(cc(C(N)=S)c(=N)n3CCCOC(C)C)c(=O)n2c1 the Potency was “inactive”. For Cc1cccn2c(=O)c3cc(C#N)c(=O)n(CCCN4CCOCC4)c3nc12, the Potency was inconclusive: 17.8 µM [inhibitor, single point]. In the case of CCNC(=S)N/N=C(\C)c1ccc(Cl)s1, the Potency is reported as active: 0.708 µM. For COc1ccccc1S(=O)(=O)Cc1ccc(C(=O)N2CCCC2)o1, the Potency was “inactive”. In the case of CCN(CC)C(=O)Oc1ccc2c(=O)c(-c3ccc(OC)cc3)c(C)oc2c1, the Potency is reported as inconclusive: 11.2 µM [activator, single point]. CC(C)(C)NC(=O)C(c1ccncc1)N(Cc1ccco1)C(=O)c1ccc(-c2ccccc2)[nH]1 (stereo not drawn) was tested, and the Potency was active: 7.08 µM. For O=C(NCCCNC(=O)c1cc(Cl)ccc1Cl)c1ccccn1, the Potency was “inactive”. O=S(=O)(NC1CCCCC1N1CCN(c2ccccc2F)CC1)c1ccccc1 (stereo not drawn) was tested, and the Potency was inconclusive: 11.2 µM [activator, single point]. For CCc1c(C)sc(NC(=O)C2CCCO2)c1C#N (stereo not drawn), the Potency was inconclusive: 10 µM [activator, partial curve]. In the case of S=c1nc(SCc2ccccc2)[nH]c2ccccc12, the Potency is reported as active: 1.41 µM. In the case of Cc1c(Cl)cn2c(=O)cc(CN(C)Cc3nc4ccccc4c(=O)[nH]3)nc2c1Cl, the Potency is reported as active: 17.8 µM. In the case of NN1C(=O)/C(=C\c2ccco2)SC1=S, the Potency is reported as “inactive”. COc1ccc2cc3cc(C(=O)NCC4COc5ccccc5O4)oc3nc2c1 (stereo not drawn) was tested, and the Potency was “inactive”. With Cc1ccc(-c2nc(-c3ccncc3)no2)cc1C the Potency was active: 8.91 µM. In the case of CC1=CC(C)(C)Nc2ccc(OC(=O)C(Cc3ccccc3)N3C(=O)c4ccccc4C3=O)cc21 (stereo not drawn), the Potency is reported as inconclusive: 15.8 µM [inhibitor, partial curve]. With CCCCN(C)C(=S)Nc1ccsc1C(=O)OC the Potency was inconclusive: 20 µM [inhibitor, single point]. In the case of O=C(NNC(=S)NCc1ccccc1)c1ccc(Br)cc1, the Potency is reported as active: 7.94 µM. For COc1ccc(OCC(=O)NCCCN2CCOCC2)cc1, the Potency was inconclusive: 2.82 µM [activator, single point]. In the case of CCOc1ccc(OCCCC(=O)O)cc1, the Potency is reported as inconclusive: 10 µM [inhibitor, partial curve, poor fit]. With C=CCNC(=O)/C(C#N)=C/c1c(N2CCCCCC2)nc2ccccn2c1=O the Potency was inconclusive: 0.794 µM [activator, partial curve, poor fit]. With COc1ccccc1/C=C/C=N/NC(=O)c1cnccn1 the Potency was inconclusive: 14.1 µM [inhibitor, single point]. For S=C(NN=C1CCCCCC1)Nc1ccc(Cl)cc1, the Potency was inconclusive: 20 µM [inhibitor, partial curve, poor fit]. With CC(C)(C)c1ccc2c(c1)OCC(C(=O)O)O2 (stereo not drawn) the Potency was inconclusive: 11.2 µM [activator, partial curve]. Cc1nc2c(ccc3nc(NC(=O)Cc4ccccc4)sc32)s1 was tested, and the Potency was inconclusive: 15.8 µM [inhibitor, single point]. For COc1cc2ccccc2cc1C(=O)N(CCN(C)C)c1nc2ccc(Br)cc2s1, the Potency was “inactive”. With Cc1nc2c(-c3ccc(F)cc3)c(C)nn2c(C)c1CCC(=O)Nc1ccccc1 the Potency was “inactive”. For O=[N+]([O-])c1ccc(NCCNS(=O)(=O)c2ccccc2)c(C(F)(F)F)c1, the Potency was inconclusive: 14.1 µM [activator, partial curve]. With Cc1cc(C(=O)N/N=C/c2cc(N=Nc3ccccc3)ccc2O)n[nH]1 the Potency was active: 10 µM. For Cc1ccc2nc(NC(=O)c3ccccn3)sc2c1, the Potency was active: 0.355 µM. For Cc1cc(F)ccc1NC(=S)NCCc1ccccc1, the Potency was active: 5.62 µM. With CCC(=O)NC1=C(Cl)C(=O)C(NC(=O)CC)=C(Cl)C1=O the Potency was active: 2.82 µM. For Nc1nonc1-c1nc2ccccc2n1Cc1ccc(F)cc1Cl, the Potency was active: 15.8 µM. In the case of C=C1CCC(C)C(C)(CCC2=CCOC2=O)C/C=C\C=C/1C(=O)O (stereo not drawn), the Potency is reported as inconclusive: 0.794 µM [activator, single point]. With N=C1S/C(=C\c2cccc3ccccc23)C(=O)N1c1ccc(F)cc1 the Potency was inconclusive: 35.5 µM [inhibitor, single point]. For COc1cccc(C2Oc3ccccc3C3CC(c4cccs4)=NN32)c1 (stereo not drawn), the Potency was inconclusive: 35.5 µM [inhibitor, single point]. For COc1ccc(-c2nc3cc(NC(=O)c4ccc5c(c4)OCO5)ccc3o2)cc1, the Potency was inconclusive: 0.891 µM [activator, full curve, poor fit]. For CCc1ccccc1-n1c(-c2ccncc2)n[nH]c1=S, the Potency was inconclusive: 35.5 µM [inhibitor, single point]. CCN1CCC(N2CCN(c3ccc(Cl)cc3)CC2)CC1 was tested, and the Potency was inconclusive: 3.55 µM [inhibitor, partial curve, poor fit]. For C=CC[C@@H]1C=C[C@H](O/N=C(\C)CCN2CCCCc3nc(C)c(C)cc32)[C@H](CO)O1, the activity change, negative = inhibition was inactive: -15.7% [at 10 µM]. For Cc1c(C(=O)NNC(=S)Nc2ccc(S(N)(=O)=O)cc2)oc2ccccc12, the Potency was inconclusive: 17.8 µM [inhibitor, single point]. Cc1ccc(C(=O)CSc2nccn2-c2ccccc2)cc1 was tested, and the Potency was active: 10 µM. O=C(NC(=S)NCCc1ccc(Cl)cc1)c1ccco1 was tested, and the Potency was active: 8.91 µM. For CCCCNC(=S)NCc1ccc2[nH]c3c(c2c1)CCCC3, the Potency was active: 5.01 µM. For CC(C)(C)c1ccc(-c2noc(CCC(N)=O)n2)cc1, the Potency was inconclusive: 3.16 µM [inhibitor, single point]. O=C(NCc1cccnc1)c1ccc([N+](=O)[O-])cc1 was tested, and the Potency was “inactive”. With O=S(=O)(c1cccc2cccnc12)N1CCN(c2ccccc2)CC1 the Potency was inconclusive: 5.62 µM [inhibitor, single point].
